Values quoted from earlier work, collected in patent publication US20210177955A1, “IMMUNOGENIC HETEROCLITIC PEPTIDES FROM CANCER-ASSOCIATED PROTEINS AND METHODS OF USE THEREOF” (priority 2017, published 2021).
Read-outs that look alike come from different tables or passages of the source.

Tested on: CD8+ T lymphocyte response
Conditions: wild-type counterpart, cited from earlier work
[1] = HLA Allele B*07:02, Table 14, uterine cancer
[2] = HLA Allele B*07:02, Table 16, ovarian cancer
[3] = HLA Allele B*07:02, Table 20, CRC
[4] = HLA Allele A*02:01, Table 14, uterine cancer
[5] = HLA Allele A*02:01, Table 16, ovarian cancer
[6] = HLA Allele A*02:01, Table 22, head and neck cancer
[7] = HLA Allele A*24:02, Table 14, uterine cancer
[8] = HLA Allele A*24:02, Table 16, ovarian cancer
[9] = HLA Allele A*02:01, Table 18, LGG

Measured: Wild-Type Peptide Immunogenic?

RNF43
Yes: [1] | [2] | HLA Allele B*07:02, Table 18, LGG | [3]

PRAME
Yes: [4] | [5] | [6]

CEACAM5^1
Yes: [4] | [5] | [6] | HLA Allele A*03:01, Table 14, uterine cancer | HLA Allele A*03:01, Table 16, ovarian cancer | HLA Allele A*03:01, Table 18, LGG | HLA Allele A*03:01, Table 20, CRC | HLA Allele A*03:01, Table 22, head and neck cancer | [7] | [8] | HLA Allele A*24:02, Table 20, CRC | HLA Allele A*24:02, Table 22, head and neck cancer | [1] | [2] | [3] | HLA Allele B*07:02, Table 22, head and neck cancer

TERT
Yes: [4] | [5] | [6]

hTERT
Yes: [9]

KLHL7
Yes: [7] | [8] | HLA Allele A*24:02, Table 18, LGG

SART3
Yes: [4] | [5] | [9]
